These are yes or no findings as the source states them, for the method shown. In cells and extracts the contact can be indirect. For part of these data: A result given as binding can be weak or reduced; the word gives no strength. Where a sequence is shown, tags or fusion partners need not be part of it.

For one assay, the target named is ZmPIMT1:NYFP (maize). The assay can be described thus: split reporter; BiFC: NYFP and CYFP fusions co-transformed into maize protoplasts, YFP fluorescence by confocal microscopy 12 h after transfection.
Assay [1] addresses NYFP (N-terminal fragment of YFP, alone). The assay is described as above.
A further assay addresses ZmPIMT1:NLUC (maize). The assay is described as follows: split reporter; firefly luciferase complementation imaging (LCI): NLUC and CLUC fusions co-infiltrated by Agrobacterium into N. benthamiana leaves, examined after 48 h with a cooled CCD.

B1: AtPABP2:CYFP (protein, UniProt P42731 1-629)
chain: MAQVQLQGQTPNGSTAAVTSAPATSGGATATQFGNTSLYVGDLDFNVTDSQLFDAFGQMGTVVTVRVCRDLVTRRSLGYGYVNFTNPQDAARAIQELNYIPLYGKPIRVMYSHRDPSVRRSGAGNIFIKNLDESIDHKALHDTFSSFGNIVSCKVAVDSSGQSKGYGFVQYANEESAQKAIEKLNGMLLNDKQVYVGPFLRRQERDSTANKTKFTNVYVKNLAESTTDDDLKNAFGEYGKITSAVVMKDGEGKSKGFGFVNFENADDAARAVESLNGHKFDDKEWYVGRAQKKSERETELRVRYEQNLKEAADKFQSSNLYVKNLDPSISDEKLKEIFSPFGTVTSSKVMRDPNGTSKGSGFVAFATPEEATEAMSQLSGKMIESKPLYVAIAQRKEDRRVRLQAQFSQVRPVAMQPSVGPRMPVYPPGGPGIGQQMFYGQAPPAMIPPQPGYGYQQQLVPGMRPGGGPVPSFFMPMVQPQQQRPGGGRRPGGIQHSQQQNPMMQQQMHPRGRMFRYPQGRGGSGDVPPYDMGNNMPLTIGALASNLSNATPEQQRTMLGEVLYPLVEQVEAESAAKVTGMLLEMDQTEVLHLLESPEALKAKVAEAMDVLRSVAAGGATEQLASLNLS
Turning to B1, the results for the binding result (with ZmPIMT1:NYFP (maize); in assay [1]) were “binds” and “no binding”, respectively.

B2: AtPABP2:CLUC (CLUC fusion of the Arabidopsis ortholog of ZmPABP2) (protein, UniProt P42731 1-629)
chain: MAQVQLQGQTPNGSTAAVTSAPATSGGATATQFGNTSLYVGDLDFNVTDSQLFDAFGQMGTVVTVRVCRDLVTRRSLGYGYVNFTNPQDAARAIQELNYIPLYGKPIRVMYSHRDPSVRRSGAGNIFIKNLDESIDHKALHDTFSSFGNIVSCKVAVDSSGQSKGYGFVQYANEESAQKAIEKLNGMLLNDKQVYVGPFLRRQERDSTANKTKFTNVYVKNLAESTTDDDLKNAFGEYGKITSAVVMKDGEGKSKGFGFVNFENADDAARAVESLNGHKFDDKEWYVGRAQKKSERETELRVRYEQNLKEAADKFQSSNLYVKNLDPSISDEKLKEIFSPFGTVTSSKVMRDPNGTSKGSGFVAFATPEEATEAMSQLSGKMIESKPLYVAIAQRKEDRRVRLQAQFSQVRPVAMQPSVGPRMPVYPPGGPGIGQQMFYGQAPPAMIPPQPGYGYQQQLVPGMRPGGGPVPSFFMPMVQPQQQRPGGGRRPGGIQHSQQQNPMMQQQMHPRGRMFRYPQGRGGSGDVPPYDMGNNMPLTIGALASNLSNATPEQQRTMLGEVLYPLVEQVEAESAAKVTGMLLEMDQTEVLHLLESPEALKAKVAEAMDVLRSVAAGGATEQLASLNLS
On to B2, for which, in the assay with ZmPIMT1:NLUC (maize), the binding result is recorded as “binds”.
